Experimental data: US20240390531A1 (IMAGINAB, published 2024)
Results are given in words; binding and its absence hold for the method and conditions named. Some results given as binding are weak or reduced against the parent protein; the word gives no strength.

The chains behind the UniProt entries cited, without tags or fusion partners.
UniProt Q12884: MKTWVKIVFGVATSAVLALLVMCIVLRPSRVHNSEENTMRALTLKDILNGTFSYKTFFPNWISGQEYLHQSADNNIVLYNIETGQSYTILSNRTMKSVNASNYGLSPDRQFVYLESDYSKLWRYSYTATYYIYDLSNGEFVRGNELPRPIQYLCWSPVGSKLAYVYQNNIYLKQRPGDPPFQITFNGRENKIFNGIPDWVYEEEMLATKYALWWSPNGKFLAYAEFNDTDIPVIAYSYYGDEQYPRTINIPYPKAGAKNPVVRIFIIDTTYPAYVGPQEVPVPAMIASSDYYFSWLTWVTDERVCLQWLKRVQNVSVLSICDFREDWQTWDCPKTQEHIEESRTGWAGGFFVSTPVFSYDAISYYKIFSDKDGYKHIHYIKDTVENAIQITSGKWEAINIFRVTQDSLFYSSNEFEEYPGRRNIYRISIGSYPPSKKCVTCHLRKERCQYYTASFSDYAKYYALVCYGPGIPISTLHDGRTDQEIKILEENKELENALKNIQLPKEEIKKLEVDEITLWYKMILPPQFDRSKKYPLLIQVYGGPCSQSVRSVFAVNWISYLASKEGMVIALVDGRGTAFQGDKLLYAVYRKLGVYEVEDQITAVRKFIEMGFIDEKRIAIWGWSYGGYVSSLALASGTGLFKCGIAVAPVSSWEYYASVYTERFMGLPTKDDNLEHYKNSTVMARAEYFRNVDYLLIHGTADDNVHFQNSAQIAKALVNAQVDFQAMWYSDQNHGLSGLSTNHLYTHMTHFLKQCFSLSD

Molecular target: T1, human FAP on cells (human, UniProt Q12884 1-760)
T1 construct: whole, on cells; The cell line is named under assay; also called HT1080 human FAP cells; HT1080-hFAP cells
Test: flow cytometry on HT1080-human FAP cells (FIG. 93)

binding: binds
B1: 9A5 (protein)
chain: QVQLKESGPGLVAPSQSLSITCTVSGFSLTNYDINWIRQPPGKGLEWLGLIWTGGGTNYNSAFMSRLSISKDNSKSQVFLKMNSLQTDDTAIYYCVRGGPLVWYALDYWGQGTSVTVSSDIVMTQSHKFMSTSVGDRVSITCKASQDVSTAVAWYQQKPGQSPKLLIYSASYRYTGVPDRFTGSGSGTDFTFTISSVQAEDLAVYYCQQHYSNPRTFGGGTKLEIK
